Measured values from PubChem BioAssay AID758 (NMMLSC, 2007).
The campaign covered roughly 190,000 compounds. About 110 (0.058%) were called active. Inconclusive results, whose numbers are uncertain, are shown with a selection of clear calls.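 Rule for the calls: active = fluorescent GTP binding to Rab7 beads changed by at least 20 points from the 100% baseline, either direction, mostly lower; inconclusive = compound itself probably fluorescent, or too few beads counted; inactive = the rest.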

system: Rab7 GTPase wild type (dog), Bodipy-FL-GTP binding; test: modulators of GTP binding to Rab7, primary screen, biochemical, wildtype, multiplex bead flow cytometry (AID 758); conditions: GST-Rab7 beads, fluorescent GTP binding, at 10 µM, actives lie on both sides, untreated = 100%, excess cold GTP = 0%;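 note: median green fluorescence of bound Bodipy-FL-GTP per Rab7 bead population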

Structure (SMILES) | GTP binding activity (percent of control)
COc1cc(S(=O)(=O)Nc2ncccc2C)c(OC)cc1Cl | inconclusive: 101%
CCCCCn1nc(C(=O)OCC(=O)c2c(N)n(C)c(=O)n(C)c2=O)c2ccccc2c1=O | inconclusive: 84%
O=C(CCN1C(=O)COc2ccccc21)NCc1cccs1 | inconclusive: 94%
CCCCn1nnc(NC(=O)c2ccc(-c3cccc([N+](=O)[O-])c3)o2)n1 | inconclusive: 98%
O=C(CSc1ncnc2sc(-c3ccccc3)cc12)NC1CCS(=O)(=O)C1 (configuration not stated) | inactive: 99%
C#CCN1C(=O)C(O)(CC(=O)c2cc(OC)ccc2OC)c2ccccc21 (configuration not stated) | inconclusive: 103%
COc1c(C)cc(Br)cc1C(=O)Nc1cccc(-c2nc3ncccc3o2)c1 | inconclusive: 84%
Cc1cc(C(=O)NNC(=O)CCCCC(=O)NNC(=O)c2cc(C)[nH]n2)n[nH]1 | inconclusive: 97%
COC(=O)c1cc(OC)c(OC)cc1NC(=O)c1ccc(C)o1 | inconclusive: 90%
CC1CN(C(=O)Cc2ccc(-c3ccccc3)cc2)CC(C)O1 (configuration not stated) | inactive: 93%
COC(=O)c1ccc(CSc2nnc(NC(=O)C3CC(=O)N(c4ccc5c(c4)OCCO5)C3)s2)cc1 (configuration not stated) | inactive: 97%
O=[N+]([O-])c1ccc(S(=O)(=O)NCCN2CCOCC2)cc1 | inconclusive: 98%
COc1ccccc1NC(=O)CN(Cc1ccco1)C(=O)c1cc2ccccc2o1 | inactive: 100%
CN(c1ccccc1)S(=O)(=O)c1cccc(NC(=O)CSc2ncc(C(F)(F)F)cc2Cl)c1 | inconclusive: 96%
CCOC(=O)C1=C(C)NC(C)=C(C(=O)OCC)C1c1cn(-c2ccccc2)nc1-c1ccco1 | inconclusive: 101%
CN(C[C@H](Cc1ccccc1)N(C[C@H](c1ccccc1)N(CCc1ccccc1)N=O)N=O)N=O | inactive: 97%
Cc1cc(F)ccc1NCC(=O)Nc1ccccc1Br | inactive: 102%
COC(=O)c1ccc(NC(=O)Cn2nc(C)cc2C)cc1 | inactive: 107%
Cc1ccc(-n2[nH]c(C)c(/C=N/NC(=O)c3ccc([N+](=O)[O-])cc3)c2=O)c(C)c1 | inconclusive: 92%

Part of the list above in order of heavy-atom count, smallest number first:
Structure (SMILES) | GTP binding activity (percent of control)
COc1cc(S(=O)(=O)Nc2ncccc2C)c(OC)cc1Cl | inconclusive: 101%
O=C(CSc1ncnc2sc(-c3ccccc3)cc12)NC1CCS(=O)(=O)C1 (configuration not stated) | inactive: 99%
CCCCCn1nc(C(=O)OCC(=O)c2c(N)n(C)c(=O)n(C)c2=O)c2ccccc2c1=O | inconclusive: 84%

Further results:

Structure (SMILES) | GTP binding activity (percent of control)
CCN1/C(=C/C=C/c2oc3ccc4ccccc4c3[n+]2CC)Oc2ccc3ccccc3c21 | inconclusive: 259%
CC(=O)c1cccc(NC(=O)CN(c2ccccc2F)S(C)(=O)=O)c1 | inconclusive: 106%
CC(NC1CCCCC1)C(=O)NN=C(c1ccccc1)c1ccccc1 (configuration not stated) | inactive: 96%
C[C@H](NC(=O)c1ccccc1Cl)C(=O)OCCOc1cccc(Cl)c1 | inactive: 94%
O=C(Cc1ccccc1)Nc1cccc(N2C(=O)C=CC2=O)c1 | inactive: 103%
Cc1sc2nc(CSCC(=O)N(CCC#N)c3ccccc3)[nH]c(=O)c2c1C | inactive: 107%
Cc1cc(C(=O)O)ccc1-c1ccc(/C=C2\NC(=O)N(Cc3ccccc3Cl)C2=O)o1 | inconclusive: 89%
O=C(Nc1nc(-c2ccc(S(=O)(=O)N3CCCC3)cc2)cs1)c1cccs1 | inactive: 90%
COc1ccc(CCNC(=O)c2ccccc2Cl)cc1OC | inconclusive: 95%
Cc1ccc(S(=O)(=O)N(C)CC(=O)OCC(=O)c2c(N)n(C)c(=O)n(C)c2=O)cc1 | inactive: 96%
CC(C)(C)OC(=O)NCCCC[C@H](NC(=O)c1nc[nH]c1C(=O)N1CCN(C(=O)OC(C)(C)C)CC1)C(=O)OC(C)(C)C | inconclusive: 94%
COc1ccc(OC)c2c(N3CCN(C)CC3)cc(C(F)(F)F)nc12 | inconclusive: 100%
c1cncc(CN=C2Nc3ccccc3CS2)c1 | inconclusive: 92%
CCOc1ccc(NC(=O)CSc2nc3cccnc3n2CCOC)cc1 | inconclusive: 103%
CCOC(=O)C1CCN(C(=O)c2cnn3c(C)cc(C)nc23)CC1 | inactive: 95%
CCc1ccccc1NC(=O)c1onc(C)c1Cl | inconclusive: 101%
CC(C(=O)Nc1cccnc1)C1Sc2ccccc2NC1=O (configuration not stated) | inactive: 100%
CCC(=O)NC1CCN(C(=S)NC)CC1 | inactive: 98%
Cn1nc(-c2ccccc2)c(-c2nc(-c3cccc(C(F)(F)F)c3)no2)c1Cl | inconclusive: 94%

Structure (SMILES) | GTP binding activity (percent of control)
Cc1cc(C)c2c(c1)SC1=NC(c3ccccc3)(C(F)(F)F)NC(=O)N12 (configuration not stated) | inactive: 99%
O=C(O)CC/C(=C\c1ccccc1[N+](=O)[O-])c1nc2ccccc2s1 | inactive: 90%
Cc1ccc(CNC(=O)/C=C/c2ccc(S(=O)(=O)N3CCOCC3)cc2)cc1 | inactive: 101%
Cc1ccc(Cc2ccc(C(=O)NNC(N)=S)o2)cc1 | inactive: 107%
Cc1ccc(C2CC(c3ccco3)=NN2S(C)(=O)=O)cc1 (configuration not stated) | inconclusive: 102%
Nc1nn2c(-c3ccccc3)cc(=O)[nH]c2c1N=Nc1ccc(Br)cc1 | inactive: 85%
NNC(=O)CN1C(c2ccc(Cl)cc2)=Nc2ccc(Br)cc2C1c1ccccc1 (configuration not stated) | inconclusive: 98%
O=C(NC1CCCCC1)c1cc([N+](=O)[O-])[nH]n1 | inactive: 109%
COc1ccc(Cc2nnc(N/N=C/c3ccc(C)o3)[nH]c2=O)cc1 | inconclusive: 103%
COc1cccc2cc(C(C)=O)c(=O)oc12 | inconclusive: 102%
O=[N+]([O-])c1ccc(NCCCNS(=O)(=O)c2ccccc2)cc1 | inactive: 94%
CCCC(=O)NCc1nc2ccccc2n1C | inconclusive: 93%
COc1ccccc1CNC(=O)c1c(N)n(CCCN2CCOCC2)c2nc3ccccc3nc12 | inactive: 87%
COc1ccccc1C(=O)Nc1ccc(OCc2nnc3c4ccccc4c(C)nn23)cc1 | inconclusive: 96%
FC(F)Sc1ccc(NC(=S)NC(c2ccccc2)c2ccccc2)cc1 | inconclusive: 94%
CCOc1ccc(C(=O)Nc2cccc(C(C)=O)c2)cc1[N+](=O)[O-] | inactive: 105%
O=C(Nc1cccc2ccccc12)c1cnccn1 | active: 75%
O=C(CSc1ncnc2scc(-c3ccccc3)c12)N1CCN(Cc2ccc3c(c2)OCO3)CC1 | inconclusive: 42%
COC(=O)CCCCC1SCC(NC(=O)OC)C1NC(=O)OC (configuration not stated) | inconclusive: 101%
